Measurements from article PMC6171237.
No constants are given. Whether binding was seen depends on the method and setting. Binding seen in cells or lysates may run through a third protein.

Target: T1, endogenous UBN1 (mES cells) (mouse (endogenous in mES cells)), Q4G0F8
T1 chain: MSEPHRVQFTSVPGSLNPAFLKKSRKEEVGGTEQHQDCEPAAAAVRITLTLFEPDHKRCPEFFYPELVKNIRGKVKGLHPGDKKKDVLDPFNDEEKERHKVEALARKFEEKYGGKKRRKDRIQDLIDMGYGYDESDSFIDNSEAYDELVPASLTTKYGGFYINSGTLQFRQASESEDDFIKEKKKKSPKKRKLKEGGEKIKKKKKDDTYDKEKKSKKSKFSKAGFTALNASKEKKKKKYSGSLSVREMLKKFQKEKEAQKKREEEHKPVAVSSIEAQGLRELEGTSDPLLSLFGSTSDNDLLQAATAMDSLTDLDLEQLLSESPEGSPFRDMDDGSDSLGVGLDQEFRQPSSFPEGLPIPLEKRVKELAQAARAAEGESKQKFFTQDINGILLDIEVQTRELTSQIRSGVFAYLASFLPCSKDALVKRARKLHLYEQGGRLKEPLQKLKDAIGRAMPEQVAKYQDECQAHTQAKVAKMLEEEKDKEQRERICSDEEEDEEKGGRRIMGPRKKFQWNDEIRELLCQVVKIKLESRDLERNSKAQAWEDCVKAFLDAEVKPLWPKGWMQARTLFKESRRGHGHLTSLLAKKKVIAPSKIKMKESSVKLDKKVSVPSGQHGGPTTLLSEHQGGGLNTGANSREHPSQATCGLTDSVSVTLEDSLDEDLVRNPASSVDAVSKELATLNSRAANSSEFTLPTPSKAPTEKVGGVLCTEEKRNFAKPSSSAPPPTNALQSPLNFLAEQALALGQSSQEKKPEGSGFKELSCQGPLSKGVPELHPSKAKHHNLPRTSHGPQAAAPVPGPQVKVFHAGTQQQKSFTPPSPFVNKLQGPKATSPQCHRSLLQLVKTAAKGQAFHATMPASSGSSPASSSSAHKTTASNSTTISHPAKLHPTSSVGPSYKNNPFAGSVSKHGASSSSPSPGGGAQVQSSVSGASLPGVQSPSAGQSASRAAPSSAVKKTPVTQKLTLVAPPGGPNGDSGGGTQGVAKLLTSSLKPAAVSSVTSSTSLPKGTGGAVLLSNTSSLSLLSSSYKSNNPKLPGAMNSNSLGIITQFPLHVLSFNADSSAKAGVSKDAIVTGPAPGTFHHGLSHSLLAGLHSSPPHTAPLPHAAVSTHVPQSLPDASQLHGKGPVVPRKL
Experiment: co-IP; endogenous proteins of mES cells; in-house UBN1 antibody or in-house UBN2 antibody, protein-A agarose beads, RIPA buffer; Western blot
Settings: remark: other sources report otherwise

B1: endogenous UBN2 (mES cells), Q80WC1 1-1314 (protein)
chain: MAEPRRVAFISLSPVRRREADFAGAEREPPRLEPQPYREPARAEPAPRADAQPPARDKPLPQREVSRAEPPMALQREPPRPEPPPPPLPLQTPPPRESASRAEPPPRPPKETVRLELVLKDPTDESCVEFSYPELLLCGEQRKKLVHTEDPFTDEHKERQEVEMLAKKFEMKYGGKARKHRKDRLQDLIDIGFGYDETDPFIDNSEAYDELVPASLTTKYGGFYINTGTLQFRQASDTEEDDFTDNQKHKPPKVPKIKEDDIEVKKRKRKEEGEKEKKPRKKVPKQLGVVALNSHKSEKKKKRYKDSLSLAAMIRKFQKEKDALKKESTPKVPVTPSSSSLPKPPCVTTALGDDIPDLGLNSADPDLPIFVSTNEHELFQEAENALEMLDDFDFDRLLDATSDGSPLSESGGENGNTTHPTFPSQVVPKVVPTLPEGLPVLLEKRIEDLRVAAKLFDEEGRKKFFTQDMNNILLDIELQLQELGPVIRSGVYSHLEAFVPCNKETLVKRLKKLHLNVQDDRLREPLQKLKLAVSNVMPEQLFKYQEDCQARSQAKCAKLQADEEREKNGSDDDDDEKPGKRVIGPRKKFHWDDTIRTLLCNLVEIKLGCYELEPNKSQSAEDYLKSFMETEVKPLWPKGWMQARMLFKESRSVHNHLTSAPAKKKVIPASKPKVKECSPKKDPKAPASVVASGGGPSTSSSTSIVASASSSSAPAQETICLDDSLDEDLSFPSASLDLVSEALAVINNGNKGPSVGSRLNVPTTKPRPGLREEKLASIMSKLPLATPKKLDSTQTAHSSSLIAGHTGPVPKKPQDLAHTGISSGLIAGSSIQNPKVSLEPLPARLLQQGLQRSSQIHASSSSQTHVSSSQAQAAASSHALGTSEAQDASSLTQVTKVHQHSAVQQNYVSPLQATISKSQTNPVVKLSNNPQLSCSSQLLKTSDKPLMYRLPLSTPSPGNGSQGPHPLVSRTAPSTTTSSNYLAKAMVSQISTQGFKSPFSMAASPKLAASPKPATSPKPLPSPKPSVSPKPSLSAKPSISTKQISKSNPAPKPAVCPSSSSPNTLVAQSSHSTSNNPVHKQPSGMNISRQSPTLNLLPSNRTSGLPTTKTLQAPSKLTNSSSTGTAGKNSLSGIPMNVPASRGSNLNSSGANRTSLSGGTGSGTQGATKPLSTPHRPTSASGSSVVTASVQSTAGASLLANASPLTLMTSPLSVTNQTVTPFGMLGGLVPVTMPFQFPLELLGFGTDTAGVTATSGSTSAALHHSLTQNLLKSLQPGAQHAAALPHSPLPAHLQQAFNDGGQSKGDTKLPRKPQ
For B1, the binding was “no binding”.
